Experimental data taken from publication PMC11970781.
No constants are given. Whether binding was seen depends on the method and setting.

The chains behind the UniProt entries cited, without tags or fusion partners. Residues count along the entry.
UniProt Q9EZE7, residues 54-1028: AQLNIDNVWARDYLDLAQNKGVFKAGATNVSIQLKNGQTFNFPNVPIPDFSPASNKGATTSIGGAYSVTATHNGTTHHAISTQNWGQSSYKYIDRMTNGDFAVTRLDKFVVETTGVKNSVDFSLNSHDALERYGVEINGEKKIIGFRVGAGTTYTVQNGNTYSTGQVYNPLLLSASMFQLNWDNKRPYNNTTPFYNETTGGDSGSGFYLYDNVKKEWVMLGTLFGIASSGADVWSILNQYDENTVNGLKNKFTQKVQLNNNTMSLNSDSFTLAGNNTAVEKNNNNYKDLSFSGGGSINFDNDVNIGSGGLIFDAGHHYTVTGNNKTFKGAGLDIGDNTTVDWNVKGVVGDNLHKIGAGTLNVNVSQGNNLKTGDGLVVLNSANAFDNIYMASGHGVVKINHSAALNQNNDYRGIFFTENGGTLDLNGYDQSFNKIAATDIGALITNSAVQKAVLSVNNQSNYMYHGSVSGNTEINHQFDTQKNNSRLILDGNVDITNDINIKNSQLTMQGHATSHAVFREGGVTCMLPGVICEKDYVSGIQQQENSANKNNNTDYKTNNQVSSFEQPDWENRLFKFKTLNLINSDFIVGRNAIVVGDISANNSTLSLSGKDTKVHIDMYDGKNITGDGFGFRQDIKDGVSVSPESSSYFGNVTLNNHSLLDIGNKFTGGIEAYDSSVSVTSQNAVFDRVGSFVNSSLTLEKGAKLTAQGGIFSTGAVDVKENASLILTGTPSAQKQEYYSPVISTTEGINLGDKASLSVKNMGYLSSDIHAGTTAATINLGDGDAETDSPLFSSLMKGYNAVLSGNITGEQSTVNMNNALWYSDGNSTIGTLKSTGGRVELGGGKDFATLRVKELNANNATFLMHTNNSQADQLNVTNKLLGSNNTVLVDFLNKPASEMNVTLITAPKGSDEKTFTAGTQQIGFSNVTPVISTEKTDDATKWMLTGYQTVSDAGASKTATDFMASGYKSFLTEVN

Biological target: EspC passenger domain (α^EspC) (enteropathogenic E. coli (0127:H6 E2348/69)) (UniProt Q9EZE7)
Test: AUC; sedimentation velocity; α^EspC at 0.5, 1 and 2 mg mL^-1 in 25 mM HEPES pH 7.0, 150 mM NaCl; 20°C; 40,000 rpm; absorbance at 280 nm; continuous-size distribution model (SEDFIT); both purified

Question: With “EspC passenger domain (α^EspC) (from UniProt Q9EZE7 54-1028) (domain or fragment)” as the substance, how does the binding read?
Answer: The binding was “no binding (tested: 2 mg mL^−1)”.
